No constants are given. Whether binding was seen depends on the method and setting. For some of these results: Binding seen in cells or lysates may run through a third protein. Some results given as binding are weak or reduced against the parent protein; the word gives no strength. Sequences can lack the tags named with a protein.

For assay [1], the target named is T1, OsSPL14 (rice, UniProt Q7EXZ2 1-417).
T1 construct: also called SBP-domain transcription factor OsSPL14
T1 sequence (looked up): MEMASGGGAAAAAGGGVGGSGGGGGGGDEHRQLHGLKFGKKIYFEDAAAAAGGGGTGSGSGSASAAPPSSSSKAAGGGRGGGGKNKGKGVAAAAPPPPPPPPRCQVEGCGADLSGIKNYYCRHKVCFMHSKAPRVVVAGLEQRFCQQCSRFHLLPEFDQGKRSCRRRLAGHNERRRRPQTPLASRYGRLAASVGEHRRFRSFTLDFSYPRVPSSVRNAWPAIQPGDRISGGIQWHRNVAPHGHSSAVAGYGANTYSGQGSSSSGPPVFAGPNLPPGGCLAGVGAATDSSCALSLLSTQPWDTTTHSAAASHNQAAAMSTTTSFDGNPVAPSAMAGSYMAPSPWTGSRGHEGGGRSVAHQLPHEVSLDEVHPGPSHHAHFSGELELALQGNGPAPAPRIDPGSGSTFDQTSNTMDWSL
The assay can be described thus: co-immunoprecipitation, immunoblot.

The target of assay [2] is T1, OsSPL14. The experiment in a line: co-immunoprecipitation.
Assay [3] addresses T2, N-terminus of YFP-tagged SBP-domain of OsSPL14 (rice) (UniProt Q7EXZ2).
T2 sequence (looked up): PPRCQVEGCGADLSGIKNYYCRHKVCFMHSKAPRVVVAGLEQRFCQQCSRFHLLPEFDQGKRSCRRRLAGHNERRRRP
The experiment in a line: deletion analysis, BiFC in rice protoplasts.

A further assay has as its target T3, His-OsUBC13 (rice) (UniProt Q9FZ48).
T3 sequence: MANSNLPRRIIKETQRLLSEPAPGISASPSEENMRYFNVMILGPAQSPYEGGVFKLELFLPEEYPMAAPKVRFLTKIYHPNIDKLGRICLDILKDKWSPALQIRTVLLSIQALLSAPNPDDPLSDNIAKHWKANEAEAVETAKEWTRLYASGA
The assay can be described thus: in vitro GST pull-down, immunoblot with anti-His and anti-GST. (In general: A western blot detects proteins with antibodies after separation by electrophoresis.)

B1: OsOTUB1.1-GFP (enzyme, not shown: large carriers)
chain: MGGDYYHSCCGDPDPDLRAPEGPKLPYVGDKEPLSTLAAEFQSGSPILQEKIKLLGEQYDALRRTRGDGNCFYRSFMFSYLEHILETQDKAEVERILKKIEQCKKTLADLGYIEFTFEDFFSIFIDQLESVLQGHESSIGAEELLERTRDQMVSDYVVMFFRFVTSGEIQRRAEFFEPFISGLTNSTVVQFCKASVEPMGEESDHVHIIALSDALGVPIRVMYLDRSSCDAGNISVNHHDFSPEANSSDGAAAAEKPYITLLYRPGHYDILYPK
As for B1, the binding result in the assay with OsSPL14 [1] and with OsSPL14 [2] was “binds” in each case.

B2: C-terminus of YFP-tagged OsOTUB1.1 (enzyme)
chain: B1 chain
notes: BiFC construct expressed in rice protoplasts; also called cYFP-OsOTUB1; cYFP-OsOTUB1.1; not shown: C-terminal fragment of YFP from vector pSY-735-35S-cYFP-HA
Take B2: the binding entry in assay [3] is reported as “binds”.

B3: recombinant GST-OsOTUB1 fusion protein (enzyme, not shown: a dimerising Fc or GST)
chain: B1 chain
As to B3, in the assay with His-OsUBC13 (rice), the binding result was “binds”.

The values are drawn from patent US20210017532A1 (INSTITUTE OF GENETICS AND DEVELOPMENTAL BIOLOGY CHINESE …, published 2021).
